Consider 33 compounds from the supplement of paper PMC12889115.

This assay has as its system Salmonella enterica serovar Typhimurium SL1344. The assay can be described thus: bacterial growth OD600 after 18 h with compound and polymyxin B; higher = more bacterial growth (less inhibition). The settings on record: 50 µM, Mueller-Hinton broth.

The list shows a part of the results. These are raw signals, not scaled to a control.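 In the initial screen, polymyxin B was used at a concentration that permeabilizes Salmonella's outer membrane but not its inner membrane. Maximum growth was set by DMSO wells with or without polymyxin B. Since plates varied, data were ranked per plate, and compounds giving the lowest OD600 advanced as hits.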

For `Cc1oc(-c2cccc(NC(=O)CCc3cccnc3)c2)nc1CNC(=O)c1ccc2cc[nH]c2c1`, the “bacterial growth OD600” value (polymyxin B 0.75 µg/mL) was found to be 0.657.

`CN(CC1Cc2ccccc2O1)c1ccc(-c2nc(C3CC3)no2)cn1` (stereo not drawn): for the setting “polymyxin B 1 µg/mL”, the “bacterial growth OD600” value was 0.162. As to `CCOC(=O)CN(C)C(=O)C1CCC(=O)N(Cc2cccc(OC)c2)C1` (stereo not drawn), the “bacterial growth OD600” value (polymyxin B 1 µg/mL) was 0.756. In the case of `COCCNC(=O)C1CCCN(c2nc(-c3ccccc3)nc3c2CCC3)C1` (stereo not drawn), the “bacterial growth OD600” value (polymyxin B 0.75 µg/mL) is 0.875. `CC1CN(c2ccc(-c3nc(-c4ccccc4F)no3)cn2)CCN1C` (stereo not drawn): the “bacterial growth OD600” value (polymyxin B 1 µg/mL) was 1.04. As for `Cc1cnc(C(=O)N2CCc3onc(-c4ccc(F)c(F)c4)c3C2)cn1`, the “bacterial growth OD600” value (polymyxin B 0.75 µg/mL) was 0.786. On to `CC#CCN1C(=O)NC(CCc2ccccc2)(C2CCN(Cc3cc(F)cc(F)c3)CC2)C1=O` (stereo not drawn), for which, for the setting “polymyxin B 0.75 µg/mL”, the “bacterial growth OD600” value worked out at 0.322.

On to `CN1CCNC(=O)C1CC(=O)N1CCCCCCC1` (stereo not drawn), for which the “bacterial growth OD600” value (polymyxin B 0.75 µg/mL) amounted to 0.86.

Consider `CC(CCn1cccn1)Nc1nncc(-c2cccc(F)c2)n1` (stereo not drawn), for which the “bacterial growth OD600” value (polymyxin B 0.75 µg/mL) was determined as 0.858. Take `COCCN1CCCC2(CCN(C(=O)c3ccc(C)s3)C2)C1=O` (stereo not drawn): under “polymyxin B 1 µg/mL”, the “bacterial growth OD600” value was found to be 0.809. In the case of `O=C(C1=CCCC1)N1CCCC(Nc2ccc3c(c2)OCCO3)C1` (stereo not drawn), the “bacterial growth OD600” value (polymyxin B 1 µg/mL) was 0.836.

With `Cc1ccc(CNc2nc(CN3CCN(C(C)C)CC3)nc3ccccc23)o1`, the “bacterial growth OD600” value (polymyxin B 0.75 µg/mL) is 0.875.

Consider `CCOC(=O)CC1CCCCN1Cc1nc(-c2ccc(C(=O)OC)cc2)oc1C` (stereo not drawn), for which the “bacterial growth OD600” value (polymyxin B 1 µg/mL) amounted to 1.08.

For `CCN(CC1CCCN(CCc2cccc(F)c2)C1)C(=O)CCSC` (stereo not drawn), the “bacterial growth OD600” value (polymyxin B 1 µg/mL) was 0.953.

With `C=CCC(=O)N1CCC(C(=O)Nc2ccc(-c3nc4ccccc4o3)cc2)CC1`, the “bacterial growth OD600” value (polymyxin B 1 µg/mL) came to 0.958. Take `CN1N=C(C(=O)N2CCCC(CCc3c(F)cccc3F)C2)CCC1=O` (stereo not drawn): the “bacterial growth OD600” value (polymyxin B 0.75 µg/mL) is 0.864.

For the compound `CCOC(=O)CCNC(=O)N1CCCC(Cc2ccccc2)(C(=O)OCC)C1` (stereo not drawn), under “polymyxin B 1 µg/mL”, the “bacterial growth OD600” value stood at 1.12. In the case of `CC(C)n1cc(CNCc2cccnc2N(C)C2CCCCC2)cn1`, under “polymyxin B 1 µg/mL”, the “bacterial growth OD600” value amounted to 1.02. As to `c1csc(CNc2nc3nonc3nc2N2CCCN(Cc3cccs3)CC2)c1`, the “bacterial growth OD600” value (polymyxin B 1 µg/mL) amounted to 0.702.

As for `Cc1oc(-c2ccccc2NC(=O)C2CCC2)nc1CNC(=O)Cc1cc(F)cc(F)c1`, for the setting “polymyxin B 0.75 µg/mL”, the “bacterial growth OD600” value was 0.869. Still for that read-out and setting: under `OCCN1CCN(Cc2cn(Cc3ccccc3)nc2-c2ccc3c(c2)OCO3)CC1` stands 0.785. Turning to `C=CCCC(=O)N1CCC(C(=O)Nc2cccc(-c3cc4ccccc4[nH]3)c2)CC1`, the “bacterial growth OD600” value (polymyxin B 1 µg/mL) is 0.666. For `COc1ccc(OC)c(-c2cc(Cl)c3c(c2)CC(CNC(=O)c2ccoc2C)O3)c1` (stereo not drawn), where the note is “polymyxin B 0.75 µg/mL”, the “bacterial growth OD600” value was 0.009. On to `COc1ccccc1C(=O)C1CCCN(C(=O)CCc2ccc3c(c2)OCO3)C1` (stereo not drawn), for which, for the setting “polymyxin B 1 µg/mL”, the “bacterial growth OD600” value was 0.969.

Consider `COc1ccc(C(CC(=O)N2CCN(C(C)=O)CC2)c2ccccc2)cc1` (stereo not drawn), for which the “bacterial growth OD600” value (polymyxin B 1 µg/mL) turned out to be 0.818. `COc1ccc(-c2noc(CN3CCN(c4ccccc4)CC3C)n2)c(OC)c1OC` (stereo not drawn): the “bacterial growth OD600” value (polymyxin B 1 µg/mL) came out at 0.891.

With `CN(C)S(=O)(=O)N1CCc2onc(-c3ccccc3)c2C1`, the “bacterial growth OD600” value (polymyxin B 0.75 µg/mL) is 0.701. For the compound `OCC1(CCOc2ccccc2)CCCN(Cc2cc(F)ccc2-n2cccn2)C1` (stereo not drawn), under “polymyxin B 1 µg/mL”, the “bacterial growth OD600” value was 0.826. Regarding `CCC(C)CNC(=O)CCc1nnc(CCc2ccc(OC)cc2)o1` (stereo not drawn), the “bacterial growth OD600” value (polymyxin B 1 µg/mL) amounted to 1.04. As to `Cc1cc2ncn(Cc3cc(C(=O)N(C)CC4CCCN4C)n[nH]3)c2cc1C` (stereo not drawn), the “bacterial growth OD600” value (polymyxin B 1 µg/mL) was found to be 0.906.

As to `COc1ccc(-c2noc(CN3CCCC(C(=O)c4ccccc4)C3)n2)cc1` (stereo not drawn), where the note is “polymyxin B 1 µg/mL”, the “bacterial growth OD600” value amounted to 0.865.

On to `COC(C(=O)Nc1ccnn1C1CCN(C(=O)C2CCCC2)CC1)c1ccccc1` (stereo not drawn), for which the “bacterial growth OD600” value (polymyxin B 1 µg/mL) is 0.754. For `Cc1ccc(C(=O)N2CCC3(CCCN(Cc4cccc(F)c4F)C3)C2)s1` (stereo not drawn), the “bacterial growth OD600” value (polymyxin B 1 µg/mL) came to 0.008.
